The values below come from US11166928B2, “Migraine prevention and treatment” (UNIVERSITATS-KINDERSPITAL, priority 2016, dated 2021).

In this data set the test system is migraine patients. Nature of the data set: Tolerability, adverse events and palatability in the pilot experiments. Format: in vivo, human. The following applies: 26 g daily (13 g twice a day). An excerpt:
Monthly migraine attack frequency was summarized over the last 3 months and the average was used for baseline comparison. Patients were either instructed to take 26 g LL or 26 g LY in two daily doses (one hour before breakfast and one hour before dinner, respectively) for the duration of 4 weeks. They were instructed to refrain from any other changes in medication or food habits for the duration of that period. The primary outcome measure was changes in days with migraines from baseline. Days with migraine were recorded using a mobile app (myheadache.ch) or a pen and paper diary and averaged across participants.
Monthly migraine attack frequency was summarized over the last 3 months and the average was used for baseline comparison. Patients were either instructed to take 20 g βHB, 26 g LL or 26 g LY in two daily doses (one hour before breakfast and one hour before dinner, respectively) for the duration of 4 weeks. […] Days with migraine were recorded using a mobile app (myheadache.ch) or a pen and paper diary and averaged across participants.
Monthly migraine attack frequency was summarized over the last 3 months and the average was used for baseline comparison. […] Days with migraine were recorded using a mobile app (myheadache.ch) or a pen and paper diary and averaged across participants.

The structures appear in SMILES notation.

As to `CC(C)C[C@H](N)C(=O)O` [LL, L-leucine, reference compound], the “Palatability (taste of the powder)” value is “intolerable”. With `NCCCC[C@H](N)C(=O)O` [LY, L-lysine, reference compound], the “Palatability (taste of the powder)” value was “intolerable”.
